Source: patent US7964369 (Stanford University, dated 2011)

T1: SOS vector alone (hSOS without GRAIL) (human, UniProt Q07889 1-1066)
T1 construct: Negative control bait of the yeast two-hybrid screen
T1 sequence (looked up): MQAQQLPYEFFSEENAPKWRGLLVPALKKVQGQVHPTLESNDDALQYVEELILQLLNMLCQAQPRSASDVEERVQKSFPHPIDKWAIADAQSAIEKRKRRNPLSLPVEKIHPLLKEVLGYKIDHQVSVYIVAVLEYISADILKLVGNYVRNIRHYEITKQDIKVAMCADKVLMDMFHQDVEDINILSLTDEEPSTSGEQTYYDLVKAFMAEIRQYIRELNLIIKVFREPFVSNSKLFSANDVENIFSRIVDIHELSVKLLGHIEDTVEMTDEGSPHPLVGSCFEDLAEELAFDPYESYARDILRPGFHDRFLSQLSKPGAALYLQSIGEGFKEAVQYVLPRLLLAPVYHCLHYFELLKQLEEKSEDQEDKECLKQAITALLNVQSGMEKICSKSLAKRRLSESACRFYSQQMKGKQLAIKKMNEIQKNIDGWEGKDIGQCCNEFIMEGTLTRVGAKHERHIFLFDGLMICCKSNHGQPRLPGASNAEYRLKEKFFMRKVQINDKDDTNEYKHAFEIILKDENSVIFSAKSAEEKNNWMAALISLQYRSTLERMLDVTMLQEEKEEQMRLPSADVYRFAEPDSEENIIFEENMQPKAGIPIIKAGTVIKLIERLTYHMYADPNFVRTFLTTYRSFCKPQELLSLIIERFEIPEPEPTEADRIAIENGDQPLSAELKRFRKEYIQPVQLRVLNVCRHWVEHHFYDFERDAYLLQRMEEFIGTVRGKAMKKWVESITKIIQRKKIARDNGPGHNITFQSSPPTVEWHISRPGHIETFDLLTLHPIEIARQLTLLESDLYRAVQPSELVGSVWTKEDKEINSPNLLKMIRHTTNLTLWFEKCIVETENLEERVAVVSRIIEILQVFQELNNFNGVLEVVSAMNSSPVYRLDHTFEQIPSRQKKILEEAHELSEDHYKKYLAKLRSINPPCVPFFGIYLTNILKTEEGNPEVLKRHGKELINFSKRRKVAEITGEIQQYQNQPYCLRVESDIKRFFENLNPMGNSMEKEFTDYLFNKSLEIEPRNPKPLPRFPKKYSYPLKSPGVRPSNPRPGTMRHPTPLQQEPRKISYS


Biological target: T1, SOS vector alone (hSOS without GRAIL)
Experiment: yeast two-hybrid (CytoTrap), secondary screen, growth on galactose at 37 C
Method: Table I: A mouse liver library cloned into pMyr vector was purchased from Stratagene (La Jolla, CA). The C-terminal half of GRAIL, starting at F225 was PCR amplified, cloned into the pSOS vector, and used as bait. Yeast competent cells were co-transformed with either the bait and library or control vectors as described in the CytoTrap instruction manual (Stratagene). More than 5 x 10^5 clones were screened. Colonies displaying growth on galactose but not glucose at 37° C. were considered to be putative positives and were evaluated in a secondary screen. Colonies growing in the secondary screen on galactose at 37° C. and in the presence of the GRAIL-SOS bait vector, but not the SOS vector alone, were considered true interactors and sequenced.
Yeast and bacterial two-hybrid analysis. A mouse liver library cloned into pMyr vector was purchased from Stratagene (La Jolla, Calif.). The C-terminal half of Grail, starting at F225, was PCR amplified, cloned into the pSOS vector, and used as bait. Yeast competent cells were co-transformed with either the bait and library or control vectors as described in the CytoTrap instruction manual (Stratagene). More than 5 ×10^5 clones were screened. Colonies displaying growth on galactose but not glucose at 37° C. were considered to be putative positives and were used on a secondary screen. […]

binding result | Binder
no binding | clone 5C-27 (98% identical to human E2-H5a) (enzyme, mouse, UniProt P61080 1-147, looked up, Library clone; not shown: myristoylation signal of the pMyr plasmid) MALKRIQKELSDLQRDPPAHCSAGPVGDDLFHWQATIMGPPDSAYQGGVFFLTVHFPTDYPFKPPKIAFTTKIYHPNINSNGSICLDILRSQWSPALTVSKVLLSICSLLCDPNPDDPLVPDIAQIYKSDKEKYNRHAREWTQKYAM
no binding | clone 6C-12 (100% identical to human E2-H5c) (enzyme, mouse, UniProt P61079 1-147, looked up, Library clone; not shown: myristoylation signal of the pMyr plasmid) MALKRINKELSDLARDPPAQCSAGPVGDDMFHWQATIMGPNDSPYQGGVFFLTIHFPTDYPFKPPKVAFTTRIYHPNINSNGSICLDILRSQWSPALTISKVLLSICSLLCDPNPDDPLVPEIARIYKTDRDKYNRISREWTQKYAM
